Measured values published in patent US4590061A, “Antimicrobial plaque disclosing agent” (priority 1985, dated 1986).

Assay: Visual plaque disclosure scoring in healthy volunteers (Table I)
Settings: human, in vivo
Method: Sanguinarine chloride was compared to two standard disclosing dyes, erythrosine and sodium fluorescein. At weekly interval healthy volunteers underwent a 12-24 hour, no oral hygiene period. Subjects then used one of the following: erythrosine, sodium flourescein, or sanguinarine chloride. Subjects rinsed two times with 15 ml. of the rinse, while the erythrosine and sodium fluorescein were used according to customary practice. Color was evaluated under ambient light after erythrosine, under ambient light for sodium fluorescein, and under longwave UV fluorescent light for sanguinarine. The color was scored for location, amount, and area.
All of the disclosing agents colored soft dental deposits at gingival margins and at the dorsal surface of the tongue. […] Mean values of plaque were measured for all disclosants.
This was the oral rinse used for the tests described in Tables I, II, and III.

Compound	staining of gingivae and other soft tissues
O=C1OC2(c3ccccc31)c1cc(I)c(O)c(I)c1Oc1c2cc(I)c(O)c1I [Erythrosine]	stained the ginginvae and other soft tissues
C[n+]1cc2c3c(ccc2c2ccc4cc5c(cc4c21)OCO5)OCO3 [Sanguinarine]	did not
O=C1OC2(c3ccc(O)cc3Oc3cc(O)ccc32)c2ccccc21 [Sodium Fluorescein]	did not
